Results are given in words; binding and its absence hold for the method and conditions named. In cells and extracts the contact can be indirect. Some results given as binding are weak or reduced against the parent protein; the word gives no strength.
Target: Parkin (UniProt O60260)
Assay: co-IP

The chains behind the UniProt entries cited, without tags or fusion partners.
UniProt O60260: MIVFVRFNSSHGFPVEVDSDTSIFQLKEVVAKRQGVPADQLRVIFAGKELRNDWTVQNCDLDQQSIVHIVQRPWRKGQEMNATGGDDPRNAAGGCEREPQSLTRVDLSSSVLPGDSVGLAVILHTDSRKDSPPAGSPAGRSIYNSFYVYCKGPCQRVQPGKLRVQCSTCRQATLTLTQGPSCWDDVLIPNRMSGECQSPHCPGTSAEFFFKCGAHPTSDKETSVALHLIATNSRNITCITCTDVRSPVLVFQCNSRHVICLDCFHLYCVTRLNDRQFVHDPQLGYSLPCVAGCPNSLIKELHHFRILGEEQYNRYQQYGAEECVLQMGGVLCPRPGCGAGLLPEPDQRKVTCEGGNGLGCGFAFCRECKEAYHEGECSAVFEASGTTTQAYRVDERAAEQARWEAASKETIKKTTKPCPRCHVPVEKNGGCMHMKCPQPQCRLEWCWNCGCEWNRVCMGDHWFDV
UniProt O14939: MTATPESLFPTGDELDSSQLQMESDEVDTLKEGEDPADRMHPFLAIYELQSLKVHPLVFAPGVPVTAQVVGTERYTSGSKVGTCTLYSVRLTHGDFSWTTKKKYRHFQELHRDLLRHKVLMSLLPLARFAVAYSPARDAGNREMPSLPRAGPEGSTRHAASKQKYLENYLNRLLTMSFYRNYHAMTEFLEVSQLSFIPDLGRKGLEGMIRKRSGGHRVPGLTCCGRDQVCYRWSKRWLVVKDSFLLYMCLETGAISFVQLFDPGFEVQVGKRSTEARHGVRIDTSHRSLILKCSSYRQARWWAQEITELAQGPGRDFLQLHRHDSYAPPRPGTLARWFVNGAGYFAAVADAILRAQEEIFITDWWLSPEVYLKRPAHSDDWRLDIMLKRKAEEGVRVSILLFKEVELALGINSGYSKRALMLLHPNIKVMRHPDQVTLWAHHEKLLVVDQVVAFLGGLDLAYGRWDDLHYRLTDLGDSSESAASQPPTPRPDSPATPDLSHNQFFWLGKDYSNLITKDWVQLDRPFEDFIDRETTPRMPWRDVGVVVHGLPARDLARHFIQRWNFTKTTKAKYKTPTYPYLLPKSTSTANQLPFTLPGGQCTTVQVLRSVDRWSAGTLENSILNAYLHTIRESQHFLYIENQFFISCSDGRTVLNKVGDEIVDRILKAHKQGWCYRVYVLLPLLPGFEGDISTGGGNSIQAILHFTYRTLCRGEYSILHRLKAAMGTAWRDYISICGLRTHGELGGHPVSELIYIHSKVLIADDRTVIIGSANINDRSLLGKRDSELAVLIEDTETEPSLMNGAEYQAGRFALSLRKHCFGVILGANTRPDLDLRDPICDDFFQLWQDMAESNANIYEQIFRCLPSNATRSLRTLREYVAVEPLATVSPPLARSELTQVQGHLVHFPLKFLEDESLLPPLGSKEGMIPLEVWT

Substance: PLD2 (from UniProt O14939 1-933) (enzyme)
- binding: binds
